Amino acid sequences for entries named in this document (tags omitted). Residues count along the entry.
UniProt P70232, residues 26-1209: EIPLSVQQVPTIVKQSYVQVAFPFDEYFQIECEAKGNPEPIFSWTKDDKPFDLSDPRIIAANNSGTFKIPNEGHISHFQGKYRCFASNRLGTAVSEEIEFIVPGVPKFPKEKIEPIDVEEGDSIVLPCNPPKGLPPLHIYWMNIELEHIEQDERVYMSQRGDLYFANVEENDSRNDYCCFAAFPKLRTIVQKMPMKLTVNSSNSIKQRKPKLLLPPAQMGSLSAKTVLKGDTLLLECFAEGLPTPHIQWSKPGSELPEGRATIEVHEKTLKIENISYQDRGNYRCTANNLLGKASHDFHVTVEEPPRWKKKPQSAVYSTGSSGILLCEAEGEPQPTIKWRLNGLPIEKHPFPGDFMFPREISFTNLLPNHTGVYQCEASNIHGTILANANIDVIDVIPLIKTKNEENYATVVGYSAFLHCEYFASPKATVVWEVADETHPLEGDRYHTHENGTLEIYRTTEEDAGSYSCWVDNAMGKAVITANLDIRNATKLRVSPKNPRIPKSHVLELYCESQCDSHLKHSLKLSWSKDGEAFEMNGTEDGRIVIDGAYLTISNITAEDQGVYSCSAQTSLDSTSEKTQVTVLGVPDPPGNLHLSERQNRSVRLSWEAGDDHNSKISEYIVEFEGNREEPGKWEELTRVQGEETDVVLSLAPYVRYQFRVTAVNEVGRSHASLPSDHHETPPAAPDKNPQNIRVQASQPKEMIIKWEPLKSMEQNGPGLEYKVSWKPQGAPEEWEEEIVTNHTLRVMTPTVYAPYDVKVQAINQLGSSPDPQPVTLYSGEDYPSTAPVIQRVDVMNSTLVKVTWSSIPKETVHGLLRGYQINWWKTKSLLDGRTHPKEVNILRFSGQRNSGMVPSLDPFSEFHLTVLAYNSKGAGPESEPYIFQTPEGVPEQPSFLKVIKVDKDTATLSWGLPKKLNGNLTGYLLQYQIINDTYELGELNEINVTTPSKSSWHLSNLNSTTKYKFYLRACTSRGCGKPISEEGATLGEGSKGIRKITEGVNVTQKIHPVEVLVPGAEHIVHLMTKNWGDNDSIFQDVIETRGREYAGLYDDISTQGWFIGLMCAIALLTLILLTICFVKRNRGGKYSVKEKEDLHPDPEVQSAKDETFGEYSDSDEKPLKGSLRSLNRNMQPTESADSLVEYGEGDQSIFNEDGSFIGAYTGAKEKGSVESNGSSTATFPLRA
UniProt P02730: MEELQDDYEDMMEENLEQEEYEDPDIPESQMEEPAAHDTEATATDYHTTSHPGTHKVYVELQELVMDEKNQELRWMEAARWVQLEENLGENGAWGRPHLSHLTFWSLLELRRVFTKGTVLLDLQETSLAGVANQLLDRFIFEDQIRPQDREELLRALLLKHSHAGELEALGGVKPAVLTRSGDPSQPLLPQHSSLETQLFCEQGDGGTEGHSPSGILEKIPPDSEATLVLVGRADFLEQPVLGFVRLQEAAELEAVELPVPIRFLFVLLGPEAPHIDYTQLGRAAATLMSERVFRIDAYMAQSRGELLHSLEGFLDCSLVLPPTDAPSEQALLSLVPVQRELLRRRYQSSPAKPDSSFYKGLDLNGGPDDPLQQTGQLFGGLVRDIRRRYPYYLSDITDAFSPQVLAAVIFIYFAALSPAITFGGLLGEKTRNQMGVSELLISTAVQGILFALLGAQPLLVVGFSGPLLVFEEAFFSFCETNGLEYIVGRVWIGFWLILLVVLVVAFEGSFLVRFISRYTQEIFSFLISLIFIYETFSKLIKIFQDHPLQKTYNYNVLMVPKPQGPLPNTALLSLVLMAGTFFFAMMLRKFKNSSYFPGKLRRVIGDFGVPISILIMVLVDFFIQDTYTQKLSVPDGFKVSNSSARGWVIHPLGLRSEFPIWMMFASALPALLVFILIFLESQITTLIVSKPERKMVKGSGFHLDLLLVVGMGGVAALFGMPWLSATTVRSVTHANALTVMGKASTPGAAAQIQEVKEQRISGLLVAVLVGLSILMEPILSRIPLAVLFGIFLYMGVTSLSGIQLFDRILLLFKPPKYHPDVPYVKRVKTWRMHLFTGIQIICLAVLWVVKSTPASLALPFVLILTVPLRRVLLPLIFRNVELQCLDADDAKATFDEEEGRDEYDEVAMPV
UniProt P35441, residues 19-1170: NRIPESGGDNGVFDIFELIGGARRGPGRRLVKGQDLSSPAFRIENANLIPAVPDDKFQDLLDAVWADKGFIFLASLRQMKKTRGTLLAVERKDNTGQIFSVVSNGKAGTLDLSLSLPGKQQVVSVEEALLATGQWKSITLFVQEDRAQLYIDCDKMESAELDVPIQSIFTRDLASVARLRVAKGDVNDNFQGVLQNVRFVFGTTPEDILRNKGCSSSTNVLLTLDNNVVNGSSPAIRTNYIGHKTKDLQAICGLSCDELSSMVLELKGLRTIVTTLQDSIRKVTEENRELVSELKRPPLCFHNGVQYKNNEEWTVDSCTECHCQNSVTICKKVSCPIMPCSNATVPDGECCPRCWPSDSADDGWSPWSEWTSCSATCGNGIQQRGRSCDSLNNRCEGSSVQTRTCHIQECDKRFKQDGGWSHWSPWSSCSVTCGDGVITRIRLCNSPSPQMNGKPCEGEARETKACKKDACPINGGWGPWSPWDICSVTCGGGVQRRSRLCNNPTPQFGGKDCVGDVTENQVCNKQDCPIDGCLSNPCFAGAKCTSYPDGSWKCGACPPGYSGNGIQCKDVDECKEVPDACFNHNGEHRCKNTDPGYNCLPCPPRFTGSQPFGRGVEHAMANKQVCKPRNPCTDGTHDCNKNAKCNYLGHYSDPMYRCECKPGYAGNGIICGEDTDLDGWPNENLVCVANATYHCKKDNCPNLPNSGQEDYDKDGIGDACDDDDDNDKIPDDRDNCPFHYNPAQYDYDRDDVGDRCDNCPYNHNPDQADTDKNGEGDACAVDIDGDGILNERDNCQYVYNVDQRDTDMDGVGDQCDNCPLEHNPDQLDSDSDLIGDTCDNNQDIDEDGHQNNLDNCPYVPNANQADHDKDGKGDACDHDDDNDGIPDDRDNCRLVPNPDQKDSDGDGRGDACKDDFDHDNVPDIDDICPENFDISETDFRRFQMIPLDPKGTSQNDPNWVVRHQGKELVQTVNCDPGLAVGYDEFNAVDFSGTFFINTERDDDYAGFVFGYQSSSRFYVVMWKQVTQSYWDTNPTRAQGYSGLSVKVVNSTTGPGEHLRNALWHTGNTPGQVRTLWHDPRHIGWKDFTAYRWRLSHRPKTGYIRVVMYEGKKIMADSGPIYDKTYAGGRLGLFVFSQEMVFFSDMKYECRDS

In doi:10.1101/2020.07.23.217018:

Assays:
[1] = target: T1, close homolog of L1 (human CHL1) (human (endogenous in serum EVs and LK2 EVs)) (UniProt O00533); experiment: proximity labelling
T1 sequence: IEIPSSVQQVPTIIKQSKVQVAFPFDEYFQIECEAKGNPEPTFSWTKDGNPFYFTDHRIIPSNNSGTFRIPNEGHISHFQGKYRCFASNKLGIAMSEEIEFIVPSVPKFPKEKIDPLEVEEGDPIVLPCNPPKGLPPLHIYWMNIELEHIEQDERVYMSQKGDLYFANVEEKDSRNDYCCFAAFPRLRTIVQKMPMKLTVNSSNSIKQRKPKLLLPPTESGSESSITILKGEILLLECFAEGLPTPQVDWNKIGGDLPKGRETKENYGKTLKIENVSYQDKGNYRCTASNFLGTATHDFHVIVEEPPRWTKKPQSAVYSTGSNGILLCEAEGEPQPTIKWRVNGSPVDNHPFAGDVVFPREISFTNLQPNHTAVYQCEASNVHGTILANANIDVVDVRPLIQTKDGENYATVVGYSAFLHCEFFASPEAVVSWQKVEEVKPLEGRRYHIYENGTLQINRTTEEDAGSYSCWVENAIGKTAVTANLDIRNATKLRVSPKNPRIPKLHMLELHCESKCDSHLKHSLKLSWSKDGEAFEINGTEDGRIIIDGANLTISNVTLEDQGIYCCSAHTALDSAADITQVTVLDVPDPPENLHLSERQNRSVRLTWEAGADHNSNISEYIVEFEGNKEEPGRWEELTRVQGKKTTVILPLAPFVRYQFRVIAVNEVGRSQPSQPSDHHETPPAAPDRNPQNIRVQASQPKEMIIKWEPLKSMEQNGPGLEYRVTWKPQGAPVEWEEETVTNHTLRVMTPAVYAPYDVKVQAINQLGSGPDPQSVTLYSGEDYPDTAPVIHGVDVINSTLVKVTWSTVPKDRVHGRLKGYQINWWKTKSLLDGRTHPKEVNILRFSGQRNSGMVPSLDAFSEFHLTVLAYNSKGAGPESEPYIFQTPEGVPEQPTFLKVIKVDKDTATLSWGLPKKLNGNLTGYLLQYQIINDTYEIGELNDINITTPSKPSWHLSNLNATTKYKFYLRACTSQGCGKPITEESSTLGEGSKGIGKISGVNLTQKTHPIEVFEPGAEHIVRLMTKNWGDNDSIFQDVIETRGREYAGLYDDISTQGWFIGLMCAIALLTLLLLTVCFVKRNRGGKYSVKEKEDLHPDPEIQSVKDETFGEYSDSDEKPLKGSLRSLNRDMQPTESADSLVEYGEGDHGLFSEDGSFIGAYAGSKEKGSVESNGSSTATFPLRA

[2] = target: close homolog of L1 (mouse CHL1) (mouse (endogenous in serum EVs)) (UniProt P70232); experiment: proximity labelling
[3] = target: T1, close homolog of L1 (human CHL1) (human (endogenous in serum EVs and LK2 EVs)); experiment: proximity labelling; remark: listed apart in the source
[4] = target: T1, close homolog of L1 (human CHL1) (human (endogenous in serum EVs and LK2 EVs)); experiment: proximity labelling; remark: listed apart in the source
[5] = target: close homolog of L1 (mouse CHL1) (mouse (endogenous in serum EVs)) (UniProt P70232); experiment: proximity labelling; remark: listed apart in the source
[6] = target: close homolog of L1 (mouse CHL1) (mouse (endogenous in serum EVs)) (UniProt P70232); experiment: condition: only in serum EVs of small tumor-bearing
[7] = target: close homolog of L1 (mouse CHL1) (mouse (endogenous in serum EVs)) (UniProt P70232); experiment: proximity labelling; remark: listed apart in the source

## SLC4A1 (human) (from UniProt P02730 1-911)
[1]
  binding: binds

## Thrombospondin 1 (mouse THBS1) (from UniProt P35441 19-1170)
[2]
  binding: binds

## caspase 14 (human)
[3]
  binding: binds
[1]
  binding: binds
[4]
  binding: binds

B1: CD5L (mouse) (protein, UniProt Q9QWK4 22-352)
chain: ESPTKVQLVGGAHRCEGRVEVEHNGQWGTVCDDGWDRRDVAVVCRELNCGAVIQTPRGASYQPPASEQRVLIQGVDCNGTEDTLAQCELNYDVFDCSHEEDAGAQCENPDSDLLFIPEDVRLVDGPGHCQGRVEVLHQSQWSTVCKAGWNLQVSKVVCRQLGCGRALLTYGSCNKNTQGKGPIWMGKMSCSGQEANLRSCLLSRLENNCTHGEDTWMECEDPFELKLVGGDTPCSGRLEVLHKGSWGSVCDDNWGEKEDQVVCKQLGCGKSLHPSPKTRKIYGPGAGRIWLDDVNCSGKEQSLEFCRHRLWGYHDCTHKEDVEVICTDFDV
[5]
  binding: binds
[6]
  binding: no binding

B2: Pregnancy Zone Protein (mouse PZP) (protein, UniProt Q61838 25-1495)
chain: ATAKPQYVVLVPSEVYSGVPEKACVSLNHVNETVMLSLTLEYAMQQTKLLTDQAVDKDSFYCSPFTISGSPLPYTFITVEIKGPTQRFIKKKSIQIIKAESPVFVQTDKPIYKPGQIVKFRVVSVDISFRPLNETFPVVYIETPKRNRIFQWQNIHLAGGLHQLSFPLSVEPALGIYKVVVQKDSGKKIEHSFEVKEYVLPKFEVIIKMQKTMAFLEEELPITACGVYTYGKPVPGLVTLRVCRKYSRYRSTCHNQNSMSICEEFSQQADDKGCFRQVVKTKVFQLRQKGHDMKIEVEAKIKEEGTGIELTGIGSCEIANALSKLKFTKVNTNYRPGLPFSGQVLLVDEKGKPIPNKNITSVVSPLGYLSIFTTDEHGLANISIDTSNFTAPFLRVVVTYKQNHVCYDNWWLDEFHTQADHSATLVFSPSQSYIQLELVFGTLACGQTQEIRIHYLLNEDIMKNEKDLTFYYLIKARGSIFNLGSHVLSLEQGNMKGVFSLPIQVEPGMAPEAQLLIYAILPNEELVADAQNFEIEKCFANKVNLSFPSAQSLPASDTHLKVKAAPLSLCALTAVDQSVLLLKPEAKLSPQSIYNLLPGKTVQGAFFGVPVYKDHENCISGEDITHNGIVYTPKHSLGDNDAHSIFQSVGINIFTNSKIHKPRFCQEFQHYPAMGGVAPQALAVAASGPGSSFRAMGVPMMGLDYSDEINQVVEVRETVRKYFPETWIWDLVPLDVSGDGELAVKVPDTITEWKASAFCLSGTTGLGLSSTISLQAFQPFFLELTLPYSVVRGEAFTLKATVLNYMSHCIQIRVDLEISPDFLAVPVGGHENSHCICGNERKTVSWAVTPKSLGEVNFTATAEALQSPELCGNKLTEVPALVHKDTVVKSVIVEPEGIEKEQTYNTLLCPQDTELQDNWSLELPPNVVEGSARATHSVLGDILGSAMQNLQNLLQMPYGCGEQNMVLFVPNIYVLNYLNETQQLTEAIKSKAINYLISGYQRQLNYQHSDGSYSTFGNHGGGNTPGNTWLTAFVLKAFAQAQSHIFIEKTHITNAFNWLSMKQKENGCFQQSGYLLNNAMKGGVDDEVTLSAYITIALLEMPLPVTHSAVRNALFCLETAWASISQSQESHVYTKALLAYAFALAGNKAKRSELLESLNKDAVKEEDSLHWQRPGDVQKVKALSFYQPRAPSAEVEMTAYVLLAYLTSESSRPTRDLSSSDLSTASKIVKWISKQQNSHGGFSSTQDTVVALQALSKYGAATFTRSQKEVLVTIESSGTFSKTFHVNSGNRLLLQEVRLPDLPGNYVTKGSGSGCVYLQTSLKYNILPVADGKAPFALQVNTLPLNFDKAGDHRTFQIRINVSYTGERPSSNMVIVDVKMVSGFIPMKPSVKKLQDQPNIQRTEVNTNHVLIYIEKLTNQTLGFSFAVEQDIPVKNLKPAPIKVYDYYETDEFTVEEYSAPFSDGSEQGNA
[5]
  binding: binds

B3: SLC4A1 (mouse) (protein, UniProt P04919 1-929)
chain: MGDMRDHEEVLEIPDRDSEEELENIIGQIAYRDLTIPVTEMQDPEALPTEQTATDYVPSSTSTPHPSSGQVYVELQELMMDQRNQELQWVEAAHWIGLEENLREDGVWGRPHLSYLTFWSLLELQKVFSKGTFLLGLAETSLAGVANHLLDCFIYEDQIRPQDREELLRALLLKRSHAEDLGNLEGVKPAVLTRSGGASEPLLPHQPSLETQLYCGQAEGGSEGPSTSGTLKIPPDSETTLVLVGRANFLEKPVLGFVRLKEAVPLEDLVLPEPVGFLLVLLGPEAPHVDYTQLGRAAATLMTERVFRITASMAHNREELLRSLESFLDCSLVLPPTDAPSEKALLNLVPVQKELLRRRYLPSPAKPDPNLYNTLDLNGGKGGPGDEDDPLRRTGRIFGGLIRDIRRRYPYYLSDITDALSPQVLAAVIFIYFAALSPAVTFGGLLGEKTRNLMGVSELLISTAVQGILFALLGAQPLLVLGFSGPLLVFEEAFFSFCESNNLEYIVGRAWIGFWLILLVMLVVAFEGSFLVQYISRYTQEIFSFLISLIFIYETFSKLIKIFQDYPLQQTYAPVVMKPKPQGPVPNTALFSLVLMAGTFLLAMTLRKFKNSTYFPGKLRRVIGDFGVPISILIMVLVDSFIKGTYTQKLSVPDGLKVSNSSARGWVIHPLGLYRLFPTWMMFASVLPALLVFILIFLESQITTLIVSKPERKMIKGSGFHLDLLLVVGMGGVAALFGMPWLSATTVRSVTHANALTVMGKASGPGAAAQIQEVKEQRISGLLVSVLVGLSILMEPILSRIPLAVLFGIFLYMGVTSLSGIQLFDRILLLFKPPKYHPDVPFVKRVKTWRMHLFTGIQIICLAVLWVVKSTPASLALPFVLILTVPLRRLILPLIFRELELQCLDGDDAKVTFDEENGLDEYDEVPMPV
[7]
  binding: binds
[5]
  binding: binds

Read-outs that look alike come from different tables or passages of the source. No constants are given. Whether binding was seen depends on the method and setting. In cells and extracts the contact can be indirect. These calls come from enrichment with a bait or labelling near it, and not all partners need be listed. For some of these results: No binding means not detected with the bait.
